Some of these results come from one statement about several compounds together. Some compounds share one range, which may span the group rather than tell each member.
Test system: Diamondback Moth (DBM)—Plutella Xylostella
Assay: Diamondback Moth (DBM) plant feeding damage test on radish plants
Assay type: in vivo
Conditions: sprayed at 250 ppm, 1 mL per test unit, 12-14 day old radish plant pre-infested with 10-15 neonate larvae, held 6 days at 25° C. and 70% relative humidity, replicated three times

| Structure (SMILES) | Plant feeding damage visually assessed on a scale of 0-10 (excellent levels of plant protection: ratings of 0-1, 10% or less feeding damage) |
| --- | --- |
| Cc1cccc(C(=O)N(C)C(C)C)c1NC(=O)c1ccccc1OC(F)(F)F [Compound 20] | 0-1 |
| Cc1cccc(C(=O)NC(C)C)c1NC(=O)c1cc(C#N)nn1-c1ncccc1Cl [Compound D93] | 0-1 |
